Test results reported in the supplement of paper PMC11732987, “Enantioselective OTUD7B fragment discovery through chemoproteomics screening and high-throughput optimisation” (Communications Chemistry, 2025).
The other results are listed elsewhere or left out. The data scatter; read single values as rough.

Chains of the proteins cited; added tags and fusions are not shown. Lines headed by an entry give the natural chain unless they say otherwise; changes in a name come on top. Residues count along the entry.
UniProt P08754, whole entry, looked up: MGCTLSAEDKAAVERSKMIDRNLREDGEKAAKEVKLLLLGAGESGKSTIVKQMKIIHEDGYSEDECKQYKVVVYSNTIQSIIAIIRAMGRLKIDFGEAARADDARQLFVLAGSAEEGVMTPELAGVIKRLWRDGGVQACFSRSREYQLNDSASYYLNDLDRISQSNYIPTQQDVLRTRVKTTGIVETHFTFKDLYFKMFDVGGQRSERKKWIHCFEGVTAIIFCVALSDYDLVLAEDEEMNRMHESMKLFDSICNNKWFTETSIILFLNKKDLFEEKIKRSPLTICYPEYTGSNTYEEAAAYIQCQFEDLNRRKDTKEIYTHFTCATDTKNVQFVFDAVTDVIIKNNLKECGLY
UniProt Q53GS7: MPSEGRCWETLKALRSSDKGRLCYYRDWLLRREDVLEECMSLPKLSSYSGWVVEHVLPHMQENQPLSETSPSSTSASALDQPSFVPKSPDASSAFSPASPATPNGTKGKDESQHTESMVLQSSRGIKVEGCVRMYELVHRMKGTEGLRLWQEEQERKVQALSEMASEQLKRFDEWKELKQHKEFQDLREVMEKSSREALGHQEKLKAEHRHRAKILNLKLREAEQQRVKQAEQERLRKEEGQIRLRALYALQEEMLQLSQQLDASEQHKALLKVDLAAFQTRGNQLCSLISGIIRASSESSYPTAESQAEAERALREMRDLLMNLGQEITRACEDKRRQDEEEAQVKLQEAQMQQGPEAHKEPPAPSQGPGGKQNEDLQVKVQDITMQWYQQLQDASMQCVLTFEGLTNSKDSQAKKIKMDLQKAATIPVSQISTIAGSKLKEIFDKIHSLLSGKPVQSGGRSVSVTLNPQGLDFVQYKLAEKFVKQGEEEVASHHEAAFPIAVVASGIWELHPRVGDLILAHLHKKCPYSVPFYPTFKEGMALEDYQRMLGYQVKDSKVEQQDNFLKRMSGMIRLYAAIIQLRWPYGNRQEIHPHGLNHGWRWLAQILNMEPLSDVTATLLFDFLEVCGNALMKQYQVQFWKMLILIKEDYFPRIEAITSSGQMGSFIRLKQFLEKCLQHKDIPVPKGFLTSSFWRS
UniProt Q8TEQ6: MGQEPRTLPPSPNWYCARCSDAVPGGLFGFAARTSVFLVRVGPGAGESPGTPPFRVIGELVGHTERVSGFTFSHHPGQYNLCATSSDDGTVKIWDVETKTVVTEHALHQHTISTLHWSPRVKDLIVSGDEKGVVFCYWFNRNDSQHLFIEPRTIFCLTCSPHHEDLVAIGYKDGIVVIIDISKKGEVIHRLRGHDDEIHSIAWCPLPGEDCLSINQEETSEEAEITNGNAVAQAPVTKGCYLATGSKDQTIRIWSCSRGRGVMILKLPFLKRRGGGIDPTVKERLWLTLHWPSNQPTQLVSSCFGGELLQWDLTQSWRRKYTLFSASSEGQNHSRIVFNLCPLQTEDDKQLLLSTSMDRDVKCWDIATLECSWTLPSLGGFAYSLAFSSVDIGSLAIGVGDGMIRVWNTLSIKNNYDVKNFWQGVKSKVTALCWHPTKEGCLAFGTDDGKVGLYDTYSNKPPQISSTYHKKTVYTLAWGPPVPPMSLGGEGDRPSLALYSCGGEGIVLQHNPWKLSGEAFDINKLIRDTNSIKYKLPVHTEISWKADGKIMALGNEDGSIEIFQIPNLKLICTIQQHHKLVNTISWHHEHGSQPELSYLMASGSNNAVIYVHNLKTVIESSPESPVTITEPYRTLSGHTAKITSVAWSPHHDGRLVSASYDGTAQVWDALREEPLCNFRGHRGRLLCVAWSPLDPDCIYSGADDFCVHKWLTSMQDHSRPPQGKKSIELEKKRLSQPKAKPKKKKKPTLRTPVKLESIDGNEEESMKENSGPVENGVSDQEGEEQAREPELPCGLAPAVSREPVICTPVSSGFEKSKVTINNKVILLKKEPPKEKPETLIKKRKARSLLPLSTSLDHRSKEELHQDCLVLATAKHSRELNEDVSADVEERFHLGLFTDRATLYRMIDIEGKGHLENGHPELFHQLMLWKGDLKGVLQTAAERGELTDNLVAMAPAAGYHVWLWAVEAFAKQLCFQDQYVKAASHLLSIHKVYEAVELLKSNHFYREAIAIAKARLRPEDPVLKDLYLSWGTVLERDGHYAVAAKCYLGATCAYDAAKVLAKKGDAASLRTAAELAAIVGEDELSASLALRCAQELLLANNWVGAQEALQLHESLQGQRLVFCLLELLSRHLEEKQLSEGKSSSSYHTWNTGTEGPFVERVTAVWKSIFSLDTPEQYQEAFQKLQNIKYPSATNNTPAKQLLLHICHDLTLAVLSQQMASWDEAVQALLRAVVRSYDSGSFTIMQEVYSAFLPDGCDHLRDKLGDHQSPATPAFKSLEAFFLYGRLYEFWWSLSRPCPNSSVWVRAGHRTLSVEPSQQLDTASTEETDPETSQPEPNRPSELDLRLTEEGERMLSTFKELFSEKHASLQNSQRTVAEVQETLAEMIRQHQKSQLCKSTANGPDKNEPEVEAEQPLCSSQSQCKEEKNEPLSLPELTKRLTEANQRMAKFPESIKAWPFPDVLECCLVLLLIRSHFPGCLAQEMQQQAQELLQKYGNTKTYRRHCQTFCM
UniProt Q49A26, 241-269: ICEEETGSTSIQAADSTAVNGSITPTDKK
UniProt Q92538: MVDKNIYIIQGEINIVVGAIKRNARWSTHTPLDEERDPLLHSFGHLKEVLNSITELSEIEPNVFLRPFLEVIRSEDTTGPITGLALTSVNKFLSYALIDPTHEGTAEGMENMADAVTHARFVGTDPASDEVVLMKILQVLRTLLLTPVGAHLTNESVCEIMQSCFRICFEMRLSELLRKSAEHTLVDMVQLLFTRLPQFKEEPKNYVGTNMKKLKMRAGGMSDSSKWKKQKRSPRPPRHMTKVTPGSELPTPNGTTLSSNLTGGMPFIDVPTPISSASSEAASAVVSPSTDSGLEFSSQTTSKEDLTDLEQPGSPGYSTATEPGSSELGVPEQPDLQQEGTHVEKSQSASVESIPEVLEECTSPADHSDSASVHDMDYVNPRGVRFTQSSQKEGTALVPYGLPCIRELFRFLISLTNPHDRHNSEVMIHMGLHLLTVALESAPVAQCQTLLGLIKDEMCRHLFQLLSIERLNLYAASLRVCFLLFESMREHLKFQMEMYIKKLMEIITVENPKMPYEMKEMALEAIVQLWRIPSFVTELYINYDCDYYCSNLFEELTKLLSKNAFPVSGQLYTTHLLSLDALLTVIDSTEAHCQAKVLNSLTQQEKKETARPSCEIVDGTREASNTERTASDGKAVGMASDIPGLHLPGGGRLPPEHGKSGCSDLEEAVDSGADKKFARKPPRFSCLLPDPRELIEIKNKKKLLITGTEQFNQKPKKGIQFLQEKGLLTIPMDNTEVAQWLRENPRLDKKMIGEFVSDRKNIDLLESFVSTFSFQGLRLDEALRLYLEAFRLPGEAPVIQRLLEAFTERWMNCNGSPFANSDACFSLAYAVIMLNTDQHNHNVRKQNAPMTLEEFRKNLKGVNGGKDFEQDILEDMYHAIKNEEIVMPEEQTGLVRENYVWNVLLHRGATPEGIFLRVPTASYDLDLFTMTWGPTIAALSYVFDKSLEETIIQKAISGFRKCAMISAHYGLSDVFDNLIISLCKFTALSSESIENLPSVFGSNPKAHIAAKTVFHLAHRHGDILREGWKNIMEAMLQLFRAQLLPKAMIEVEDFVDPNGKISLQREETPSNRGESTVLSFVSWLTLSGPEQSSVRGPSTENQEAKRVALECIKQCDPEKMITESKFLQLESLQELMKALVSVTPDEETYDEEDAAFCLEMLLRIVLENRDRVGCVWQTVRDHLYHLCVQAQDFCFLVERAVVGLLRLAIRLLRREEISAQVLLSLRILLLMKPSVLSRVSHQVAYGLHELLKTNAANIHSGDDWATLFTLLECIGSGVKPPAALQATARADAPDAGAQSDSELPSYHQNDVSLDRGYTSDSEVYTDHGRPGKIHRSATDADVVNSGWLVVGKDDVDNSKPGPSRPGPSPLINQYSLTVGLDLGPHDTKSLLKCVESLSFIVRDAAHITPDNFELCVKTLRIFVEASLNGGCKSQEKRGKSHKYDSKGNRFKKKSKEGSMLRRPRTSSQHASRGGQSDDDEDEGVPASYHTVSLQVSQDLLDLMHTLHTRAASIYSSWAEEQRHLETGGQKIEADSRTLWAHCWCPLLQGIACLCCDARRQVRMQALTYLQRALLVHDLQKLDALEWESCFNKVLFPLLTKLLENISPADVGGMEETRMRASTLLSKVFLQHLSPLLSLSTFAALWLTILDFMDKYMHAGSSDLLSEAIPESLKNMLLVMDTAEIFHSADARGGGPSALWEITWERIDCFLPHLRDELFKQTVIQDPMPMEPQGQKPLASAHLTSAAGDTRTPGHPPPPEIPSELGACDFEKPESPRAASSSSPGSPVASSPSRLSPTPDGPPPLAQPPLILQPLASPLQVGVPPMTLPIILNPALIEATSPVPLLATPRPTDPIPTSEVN
UniProt Q92917, 453-476: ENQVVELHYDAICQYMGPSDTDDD
UniProt Q92947, 171-194: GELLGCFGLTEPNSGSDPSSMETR
UniProt Q7Z2K8: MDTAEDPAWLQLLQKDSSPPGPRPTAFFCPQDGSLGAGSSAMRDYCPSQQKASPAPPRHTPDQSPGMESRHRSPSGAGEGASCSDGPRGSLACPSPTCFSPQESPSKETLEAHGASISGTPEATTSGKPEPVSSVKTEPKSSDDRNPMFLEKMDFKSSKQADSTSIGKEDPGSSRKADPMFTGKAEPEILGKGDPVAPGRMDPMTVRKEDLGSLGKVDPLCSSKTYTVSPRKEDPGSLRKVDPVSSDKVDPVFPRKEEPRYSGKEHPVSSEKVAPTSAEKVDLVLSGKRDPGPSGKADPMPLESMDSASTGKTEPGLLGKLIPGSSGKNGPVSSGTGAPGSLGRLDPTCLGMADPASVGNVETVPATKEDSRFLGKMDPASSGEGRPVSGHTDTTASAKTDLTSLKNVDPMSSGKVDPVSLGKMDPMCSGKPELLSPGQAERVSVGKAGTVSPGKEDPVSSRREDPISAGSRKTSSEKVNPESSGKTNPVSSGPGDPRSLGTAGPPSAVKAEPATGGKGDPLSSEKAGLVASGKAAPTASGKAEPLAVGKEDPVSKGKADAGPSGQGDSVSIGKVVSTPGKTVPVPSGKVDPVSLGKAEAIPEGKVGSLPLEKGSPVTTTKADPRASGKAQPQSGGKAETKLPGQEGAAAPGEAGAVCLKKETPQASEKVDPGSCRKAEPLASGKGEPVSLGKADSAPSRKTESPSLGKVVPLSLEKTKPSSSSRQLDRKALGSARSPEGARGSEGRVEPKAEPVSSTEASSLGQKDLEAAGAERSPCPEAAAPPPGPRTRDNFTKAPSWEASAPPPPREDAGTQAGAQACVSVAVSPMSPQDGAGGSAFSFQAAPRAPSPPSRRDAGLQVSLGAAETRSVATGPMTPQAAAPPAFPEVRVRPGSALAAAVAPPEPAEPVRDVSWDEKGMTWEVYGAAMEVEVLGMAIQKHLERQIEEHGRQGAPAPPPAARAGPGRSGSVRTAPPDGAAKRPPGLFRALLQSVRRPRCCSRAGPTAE
UniProt Q08379, 778-799: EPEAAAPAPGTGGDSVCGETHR
UniProt Q9P2T1: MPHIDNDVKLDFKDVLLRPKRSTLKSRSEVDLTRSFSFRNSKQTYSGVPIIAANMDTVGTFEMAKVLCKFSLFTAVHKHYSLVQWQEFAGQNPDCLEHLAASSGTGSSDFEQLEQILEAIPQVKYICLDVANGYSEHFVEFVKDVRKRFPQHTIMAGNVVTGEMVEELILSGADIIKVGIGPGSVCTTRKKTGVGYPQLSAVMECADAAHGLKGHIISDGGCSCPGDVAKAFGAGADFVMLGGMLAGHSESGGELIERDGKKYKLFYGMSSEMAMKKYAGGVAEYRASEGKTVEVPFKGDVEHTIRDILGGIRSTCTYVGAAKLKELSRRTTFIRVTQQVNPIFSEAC
UniProt Q9NW75: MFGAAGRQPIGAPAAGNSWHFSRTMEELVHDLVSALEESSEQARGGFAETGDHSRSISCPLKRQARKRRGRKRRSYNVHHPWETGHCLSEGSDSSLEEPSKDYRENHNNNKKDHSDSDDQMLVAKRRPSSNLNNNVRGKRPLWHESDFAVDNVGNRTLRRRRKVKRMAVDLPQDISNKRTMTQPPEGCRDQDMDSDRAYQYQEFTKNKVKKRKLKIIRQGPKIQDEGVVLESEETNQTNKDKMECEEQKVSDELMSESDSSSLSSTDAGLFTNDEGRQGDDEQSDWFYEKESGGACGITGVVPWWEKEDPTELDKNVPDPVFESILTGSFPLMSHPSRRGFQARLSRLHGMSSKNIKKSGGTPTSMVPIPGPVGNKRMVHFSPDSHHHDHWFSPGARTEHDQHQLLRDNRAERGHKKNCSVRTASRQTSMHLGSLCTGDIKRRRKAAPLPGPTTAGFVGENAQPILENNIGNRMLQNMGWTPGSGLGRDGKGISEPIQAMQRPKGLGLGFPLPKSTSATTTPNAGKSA

Legend:
[1] = compound: ClCC(=O)N[C@@H]1CCCc2ccccc12; experiment: log2 mean competition ratio of IA-DTB cysteine labelling (DMSO/compound) (log2 ratio); higher = stronger cysteine engagement by compound; conditions: treatment time: 4 h, cell line lysate: HEK293T
Procedure: (§1)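 IA-DTB competitive cysteine chemoproteomics in HEK293T RIPA lysate. Lysates were treated with compound 29 or 30 at 50 or 200 µM for 4 h, then IA-DTB (500 µM, 1 h), trypsin-digested, NeutrAvidin-enriched and analysed by diaPASEF. Competition ratio = intensity DMSO / intensity compound (n=4 treated, n=64 DMSO); binding: mean log2 CR ≥ 1 and p ≤ 0.05 plus QC filters. Target is the cysteine site.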

[2] = compound: ClCC(=O)N[C@H]1CCCc2ccccc12; experiment: as above; conditions: treatment time: 4 h, cell line lysate: HEK293T
Procedure: as §1

Target	log2 mean competition ratio ([1]; 50 µM)	log2 mean competition ratio ([1]; 200 µM)	log2 mean competition ratio ([2]; 50 µM)	log2 mean competition ratio ([2]; 200 µM)
GNAI3 C351 (UniProt P08754)	-0.012	-0.0648	0.0331	0.0412
GMEB2 C117 (UniProt Q9UKD1)	0.549	-0.0272	-0.29	0.182
GPRIN3 C515	-0.00923	0.349	-0.119	0.197
GLE1 C528 (UniProt Q53GS7)	0.452	0.674	0.141	0.761
GPRC5A C284 (UniProt Q8NFJ5)	0.00591	0.651	-0.189	0.312
GSPT2 C582 (UniProt Q8IYD1)	-0.199	-0.275	0.242	-0.0729
GEMIN5 C973 (UniProt Q8TEQ6)	0.0133	-0.0537	0.0278	0.0846
GGCX C323 (UniProt P38435)	-0.306	-0.0452	-0.339	-0.00184
GORASP2 C173 (UniProt Q9H8Y8)	-0.201	-0.00483	0.0498	0.0509
GPX1 C156 (UniProt P07203)	0.00555	-0.422	-0.0423	-0.475
GLYR1 C242 (UniProt Q49A26)	-0.34	-0.0773	-0.292	-0.501
GNAI3 C66 (UniProt P08754)	-0.318	0.0039	-0.341	0.0372
GBF1 C1414 (UniProt Q92538)	-0.0163	-0.041	-0.242	-0.065
GOLPH3 C280 (UniProt Q9H4A6)	-0.376	0.383	0.0801	0.596
GEMIN5 C806 (UniProt Q8TEQ6)	-0.153	-0.0532	0.00755	-0.0193
GCN1 C1781 (UniProt Q92616)	0.459	-0.116	-0.0163	-0.401
GOLGA4 C1269 (UniProt Q13439)	0.2	0.361	-0.136	-0.0625
GRID1 C811	-0.0331	0.111	-0.148	0.191
GPKOW C465 (UniProt Q92917)	-0.368	0.175	-0.328	0.416
GCDH C176 (UniProt Q92947)	-0.162	-0.222	0.257	-0.131
GPRIN1 C675 (UniProt Q7Z2K8)	-0.132	0.225	0.0929	0.432
GIGYF1 C177 (UniProt O75420)	0.065	0.0728	-0.183	0.0265

3 records drawn at random from the list so far, as already listed:
Target	log2 mean competition ratio ([1]; 50 µM)	log2 mean competition ratio ([1]; 200 µM)	log2 mean competition ratio ([2]; 50 µM)	log2 mean competition ratio ([2]; 200 µM)
GRID1 C811	-0.0331	0.111	-0.148	0.191
GCDH C176 (UniProt Q92947)	-0.162	-0.222	0.257	-0.131
GBF1 C1414 (UniProt Q92538)	-0.0163	-0.041	-0.242	-0.065

The list continues:

Target	log2 mean competition ratio ([1]; 50 µM)	log2 mean competition ratio ([1]; 200 µM)	log2 mean competition ratio ([2]; 50 µM)	log2 mean competition ratio ([2]; 200 µM)
GOLPH3 C108 (UniProt Q9H4A6)	0.0675	0.00201	0.185	0.0396
GPC4 C408 (UniProt O75487)	0.000537	0.0235	0.422	0.0608
GCC2 C257 (UniProt Q8IWJ2)	0.0422	-0.256	-0.332	-0.311
GOLGA2 C794 (UniProt Q08379)	0.0475	0.0499	-0.0715	-0.0303
GOLGA4 C1862 (UniProt Q13439)	-0.0183	0.164	-0.385	0.0495
GSDME C180 (UniProt O60443)	-0.253	-0.215	0.096	-0.241
GPKOW C137 (UniProt Q92917)	0.21	0.056	0.0623	0.109
GNAI1 C254 (UniProt P63096)	0.133	-0.181	0.193	-0.168
GEMIN5 C793 (UniProt Q8TEQ6)	-0.311	0.206	-0.227	0.209
GPRIN1 C658 (UniProt Q7Z2K8)	-0.00376	-0.122	0.161	0.00946
GRIPAP1 C827 (UniProt Q4V328)	-0.129	-0.101	0.268	0.109
GPATCH8 C639 (UniProt Q9UKJ3)	0.0363	-0.0372	-0.208	0.0268
GPRIN1 C428 (UniProt Q7Z2K8)	-0.164	0.334	-0.708	0.195
GPC1 C343 (UniProt P35052)	0.164	0.308	0.145	0.299
GPT2 C347 (UniProt Q8TD30)	-0.185	-0.281	-0.0184	-0.0509
GPATCH4 C152 (UniProt Q5T3I0)	0.0915	0.0586	-0.0299	0.129
GEMIN8 C180 (UniProt Q9NWZ8)	0.226	0.276	-0.194	0.102
GMPR2 C316 (UniProt Q9P2T1)	0.414	-0.0939	-0.0176	-0.148
GPATCH2 C59 (UniProt Q9NW75)	-0.191	0.0331	-0.385	0.164
GEN1 C766 (UniProt Q17RS7)	-0.313	-0.321	0.0882	-0.194
GGNBP2 C236 (UniProt Q9H3C7)	-0.158	0.0481	-0.437	0.222
